{
  "sequences": {"note": "By UniProt entry, the sequences of proteins in these tests, tags left out. Where a name states a change or a piece, a line headed by the entry shows the natural chain unless it says otherwise.", "UniProt O94782": "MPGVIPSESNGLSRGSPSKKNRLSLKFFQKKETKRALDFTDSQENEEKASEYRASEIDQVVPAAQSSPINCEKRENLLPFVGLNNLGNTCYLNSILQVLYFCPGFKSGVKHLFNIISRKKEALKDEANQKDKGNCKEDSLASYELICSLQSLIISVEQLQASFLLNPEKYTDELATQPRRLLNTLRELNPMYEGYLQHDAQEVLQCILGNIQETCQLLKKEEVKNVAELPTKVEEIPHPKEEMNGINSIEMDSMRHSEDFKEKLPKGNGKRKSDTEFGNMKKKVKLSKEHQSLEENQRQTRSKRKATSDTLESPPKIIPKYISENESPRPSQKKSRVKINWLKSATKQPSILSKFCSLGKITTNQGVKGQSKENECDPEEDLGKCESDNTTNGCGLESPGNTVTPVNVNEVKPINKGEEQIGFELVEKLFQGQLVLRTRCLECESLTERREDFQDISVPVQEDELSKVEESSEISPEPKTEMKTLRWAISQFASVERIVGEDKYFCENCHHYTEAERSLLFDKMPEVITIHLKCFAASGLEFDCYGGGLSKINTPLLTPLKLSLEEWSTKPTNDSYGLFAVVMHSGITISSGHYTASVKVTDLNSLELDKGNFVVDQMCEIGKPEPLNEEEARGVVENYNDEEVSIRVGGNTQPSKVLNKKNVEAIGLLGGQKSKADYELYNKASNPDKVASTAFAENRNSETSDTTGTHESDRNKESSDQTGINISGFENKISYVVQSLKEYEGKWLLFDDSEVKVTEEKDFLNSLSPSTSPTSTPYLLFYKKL"},
  "source": "PubChem BioAssay AID743255",
  "about": "(National Center for Advancing Translational Sciences (NCATS), 2014)",
  "note": "Out of some 390,000 compounds screened, about 910 (0.23%) were called active. The inconclusive results got no clear call from the source; some entries with a clear call stand among them for comparison. The call rests on the fitted dose curve; in most records, active means well fitted inhibition curve with a large enough effect; inconclusive means small, poorly fitted or top-dose-only effect; inactive means no such curve, though single readings can be large or run the other way. A potency beside an inconclusive call is a rough fit, not a confirmed value. On the % scale 0 is the no-effect control and ±100 the full control effect; potency means the concentration at half of the fitted maximal effect.",
  "data": [
    {"target": "Ubiquitin carboxyl-terminal hydrolase 1 (Homo sapiens) (UniProt O94782)", "test": "Inhibitors of USP1/UAF1: Primary Screen; further: nearly all actives have a fitted effect of over 60% in size", "details": "recombinant USP1/UAF1, Ub-Rhodamine cleavage fluorescence; activity change, negative = inhibition: at 57.1 µM (top of the series)", "outline": "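1 nM enzyme complex + cpd, 15 min RT; start with Ub-Rho 150nM final; kinetic fluorescence ex 480/em 540, 6 reads q60 s. Buffer 50mM HEPES pH 7.8, 0.5mM EDTA, 0.1 mg/ml BSA, 1mM TCEP, 0.01% Tween-20.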", "values": [
      {"compound": "Fc1ccc(Nc2nc3ccccc3n3cnnc23)c(F)c1", "Potency": "inconclusive: 50.1 µM [inhibitor, partial curve, poor fit]"},
      {"compound": "CCCn1c(SCC(=O)Nc2nc(-c3ccc(OC)cc3)cs2)nc2c1c(=O)n(C)c(=O)n2C", "activity change, negative = inhibition": "inactive: -22.3%"},
      {"compound": "COc1ccccc1NC(=O)NC1(C(=O)NCC2CCCO2)CCCCC1", "note": "(stereo unspecified)", "Potency": "inconclusive: 44.7 µM [inhibitor, single point]"},
      {"compound": "O=C(CCCCCn1c(=O)c2sccc2n(Cc2ccccc2Cl)c1=O)NCc1ccc2c(c1)OCO2", "Potency": "inconclusive: 79.4 µM [inhibitor, partial curve, poor fit]"},
      {"compound": "COc1cc(N/C=C2\\CC(=O)NC(C)=C2C#N)cc(OC)c1OC", "Potency": "inconclusive: 39.8 µM [inhibitor, partial curve, poor fit]"},
      {"compound": "O=C1/C(=C/c2ccccn2)SC(=S)N1Nc1ncc(C(F)(F)F)cc1Cl", "Potency": "inconclusive: 15.8 µM [inhibitor, partial curve]"},
      {"compound": "O=C(CCN1CCOCC1)N/N=C/c1cc(Br)cc(Br)c1O", "Potency": "inconclusive: 44.7 µM [inhibitor, partial curve, poor fit]"},
      {"compound": "CCC(=O)N1CCc2cc(S(=O)(=O)NC(Cc3ccccc3)C(=O)O)ccc21", "note": "(stereo unspecified)", "Potency": "inconclusive: 89.1 µM [inhibitor, partial curve, poor fit]"},
      {"compound": "COc1ccc(N(CC(=O)NC(C)C)S(=O)(=O)c2ccc(NC(C)=O)cc2)cc1", "Potency": "inconclusive: 7.08 µM [inhibitor, single point]"},
      {"compound": "COc1cccc(NC(=O)c2nnn(Cc3ccc(Br)cc3F)c2N)c1", "Potency": "inconclusive: 7.94 µM [inhibitor, full curve, poor fit]"},
      {"compound": "CCOC(=O)c1ccc(CNCc2ccc(Br)cc2)cc1", "activity change, negative = inhibition": "inactive: -4.8%"},
      {"compound": "N=C1/C(=C/c2cccn2Cc2ccc(F)cc2)C(=O)N=C2SC=CN12", "activity change, negative = inhibition": "inactive: -20.1%"},
      {"compound": "COC(=O)c1sccc1S(=O)(=O)N(CC(=O)Nc1cccc(C)c1C)c1ccc(C)c(C)c1", "activity change, negative = inhibition": "inactive: -3.05%"},
      {"compound": "CCC(CC)C(=O)Nc1cccc(C(=O)NCc2ccco2)c1", "activity change, negative = inhibition": "inactive: -6.59%"},
      {"compound": "COc1cc(OC)c(NC(=O)Cn2ncn3c(cc4cc(C)ccc43)c2=O)cc1Cl", "Potency": "inconclusive: 0.282 µM [inhibitor, full curve, poor fit]"},
      {"compound": "CNC(=O)NNC(=O)c1nc(-c2ccccc2)c(C)o1", "Potency": "inconclusive: 44.7 µM [inhibitor, partial curve, poor fit]"},
      {"compound": "CCOC(=O)c1c(NC(=O)c2cc(-c3ccc(OC)c(OC)c3)on2)sc2c1CCCC2", "Potency": "inconclusive: 6.31 µM [inhibitor, full curve, poor fit]"},
      {"compound": "CCCCCCCN(c1ccccc1)[C@@H]1C[C@H]2CCCC(=O)N3CC[C@@H](C1)[C@@H]23", "Potency": "inconclusive: 44.7 µM [inhibitor, partial curve, poor fit]"},
      {"compound": "COc1ccc(-c2nc3cc(NC(=O)COc4ccccc4C)ccc3o2)cc1", "Potency": "inconclusive: 63.1 µM [inhibitor, partial curve, poor fit]"},
      {"compound": "O=C(COC(=O)CCc1nc2ccccc2c(=O)[nH]1)Nc1ccc(Cl)cn1", "activity change, negative = inhibition": "inactive: -23.3%"},
      {"compound": "CCOc1cc(-c2nc(-c3ccccc3OC)no2)cc(OCC)c1OCC", "Potency": "inconclusive: 39.8 µM [inhibitor, partial curve]"},
      {"compound": "CCc1ccc(C2c3c(-c4ccccc4O)n[nH]c3C(=O)N2Cc2cccnc2)cc1", "note": "(stereo unspecified)", "Potency": "inconclusive: 5.01 µM [inhibitor, single point]"},
      {"compound": "COC(=O)c1sc(NC(=O)CSc2nnnn2C)nc1C", "Potency": "inconclusive: 10 µM [inhibitor, partial curve, poor fit]"},
      {"compound": "COc1ccc(CN2CCC[C@]3(N[C@H](c4ccc(C(F)(F)F)cc4)[C@@H]4C(=O)N(C)C(=O)[C@@H]43)C2=O)cc1", "Potency": "inconclusive: 0.316 µM [inhibitor, full curve, poor fit]"},
      {"compound": "CC(NS(=O)(=O)c1ccc2c(c1)c(=O)n(C)c(=O)n2C)C(=O)NC1CCCCC1", "note": "(stereo unspecified)", "activity change, negative = inhibition": "inactive: -5.71%"},
      {"compound": "Cc1ccc(S(=O)(=O)N2CCCOC2)cc1", "Potency": "inconclusive: 0.794 µM [inhibitor, partial curve, poor fit]"},
      {"compound": "O=C1C2C3C=CC(CC3)C2C(=O)N1c1ccc2c(c1)OCO2", "note": "(stereo unspecified)", "activity change, negative = inhibition": "inactive: -8.95%"},
      {"compound": "Oc1c(C(c2ccc(F)cc2)N2CCN(Cc3ccccc3)CC2)sc2nc(-c3ccco3)nn12", "note": "(stereo unspecified)", "Potency": "inconclusive: 2.51 µM [inhibitor, partial curve]"},
      {"compound": "Fc1ccccc1NC(=S)Nc1cccc2cnccc12", "activity change, negative = inhibition": "inactive: -17%"},
      {"compound": "Cc1ccc(CS(=O)(=O)c2ncc(Cl)c(C(=O)Nc3nnc(C(C)C)s3)n2)cc1", "Potency": "inconclusive: 50.1 µM [inhibitor, partial curve, poor fit]"},
      {"compound": "COc1ccc([C@@H]2C[C@H](c3ccccc3)Oc3cc(OC)c(OC)c(OC)c32)cc1", "Potency": "inconclusive: 2.82 µM [inhibitor, full curve, poor fit]"},
      {"compound": "COc1ccc(NC(=O)c2ccc3c(SCC(=O)O)c4c(nc3c2)CCCC4)c(OC)c1", "Potency": "inconclusive: 0.355 µM [inhibitor, full curve, poor fit]"},
      {"compound": "CCN(CC)C(=O)Cn1c(=O)n(-c2ccc(C)c(C)c2)c(=O)c2c3c(sc21)CCCCC3", "Potency": "inconclusive: 50.1 µM [inhibitor, partial curve, poor fit]"},
      {"compound": "Nc1c(C(=O)NCc2ccc(Cl)cc2)sc2nc3c(c(C(F)(F)F)c12)CCC3", "Potency": "inconclusive: 31.6 µM [inhibitor, single point]"},
      {"compound": "CCOc1ccc(CNC(=O)c2cnc3sc(N4CCOCC4)nn3c2=O)cc1", "activity change, negative = inhibition": "inactive: 0.339%"},
      {"compound": "CCS(=O)(=O)N1CCc2cc(C(=O)Nc3ccc(C(=O)OC)cc3)ccc21", "Potency": "inconclusive: 79.4 µM [inhibitor, partial curve, poor fit]"},
      {"compound": "Cc1ccc(C)c(N2CCN(C(=O)CCc3nnc4n(CC(C)C)c(=O)c5ccccc5n34)CC2)c1", "Potency": "inconclusive: 0.794 µM [inhibitor, full curve, poor fit]"},
      {"compound": "Cc1cccc(N/N=C/c2ccc(O)c(O)c2O)c1", "activity change, negative = inhibition": "inactive: -26.5%"},
      {"compound": "CCO[C@@H]1OC(C(=O)NC2CC2)=C[C@H](c2csc3ccccc23)[C@H]1CCCO", "Potency": "inconclusive: 3.98 µM [inhibitor, partial curve]"},
      {"compound": "COc1cc(NC(=O)c2cc3c(s2)-c2ccccc2OC3)cc(OC)c1OC", "activity change, negative = inhibition": "inactive: -10.6%"},
      {"compound": "Cc1ccc2nc(-c3ccc(O)cc3)c(Nc3ccc(Cl)cc3)n2c1", "Potency": "inconclusive: 1 µM [inhibitor, partial curve, poor fit]"},
      {"compound": "Cc1cc2c(SCc3ccccc3Cl)nc(N)nc2nc1C", "Potency": "inconclusive: 1.12 µM [inhibitor, partial curve]"},
      {"compound": "CCSc1oc(-c2ccco2)nc1S(=O)(=O)c1ccc(Br)cc1", "Potency": "inconclusive: 5.62 µM [inhibitor, partial curve]"},
      {"compound": "CC(=O)c1ccc(Nc2nc3c(S(=O)(=O)c4ccccc4)nnn3c3ccc(Cl)cc23)cc1", "Potency": "inconclusive: 20 µM [inhibitor, partial curve]"},
      {"compound": "CC1(C)CC(=O)C(C=Nc2ccncc2)=C(O)C1", "Potency": "inconclusive: 2.82 µM [inhibitor, full curve]"},
      {"compound": "COC(=O)c1cc2oc(C)cc2n1CC(=O)N1CCCc2ccccc21", "Potency": "inconclusive: 35.5 µM [inhibitor, partial curve]"},
      {"compound": "O=C(c1ccc(O)c(Br)c1)c1cc(Br)ccc1O", "Potency": "inconclusive: 44.7 µM [inhibitor, partial curve, poor fit]"},
      {"compound": "CC(Oc1ccc(Br)cc1)C(=O)N(Cc1ccccc1)c1c(N)n(Cc2ccccc2)c(=O)[nH]c1=O", "note": "(stereo unspecified)", "activity change, negative = inhibition": "inactive: 3.02%"},
      {"compound": "Cc1ccc(NC(=O)Cn2cc(S(=O)(=O)N3CCCC3)c(S(=O)(=O)N3CCCC3)c2)cc1F", "Potency": "inconclusive: 0.316 µM [inhibitor, full curve, poor fit]"},
      {"compound": "Cc1nc(-c2ccccc2)c(Cc2ccccc2O)c(=O)[nH]1", "Potency": "inconclusive: 44.7 µM [inhibitor, partial curve, poor fit]"},
      {"compound": "CCCCCCCCCCCCCCC(O)C[N+](C)(CCO)CCO", "note": "(stereo unspecified)", "activity change, negative = inhibition": "inactive: -18%"},
      {"compound": "CC1(C)CC2CC(C)(CN2C(=O)COC(=O)c2cccc([N+](=O)[O-])c2)C1", "note": "(stereo unspecified)", "activity change, negative = inhibition": "inactive: -8.68%"},
      {"compound": "CCOC(=O)C1CCN(S(=O)(=O)c2ccc3[nH]c(=O)c(=O)[nH]c3c2)CC1", "Potency": "inconclusive: 50.1 µM [inhibitor, partial curve, poor fit]"},
      {"compound": "Cc1cccc(NC(=O)C(=O)NCCc2sc(-c3ccccc3)nc2C)c1C", "activity change, negative = inhibition": "inactive: -26.6%"},
      {"compound": "CC1CN(C(=O)COC(=O)CSc2ccc([N+](=O)[O-])cc2)CC(C)O1", "note": "(stereo unspecified)", "Potency": "inconclusive: 10 µM [inhibitor, partial curve]"},
      {"compound": "Cc1ccc(Cl)cc1NC(=O)N1CCC2(CC1)Oc1ccccc1C(=O)N2Cc1ccccc1F", "Potency": "inconclusive: 0.316 µM [inhibitor, full curve]"},
      {"compound": "O=C(CSc1n[nH]c(-c2ccccc2)n1)N1CCN(c2ccccc2F)CC1", "Potency": "inconclusive: 355 µM [inhibitor, partial curve, poor fit]"},
      {"compound": "COc1cccc(NC(=O)c2sc3nc(C)c(C(=O)Nc4ccc(Cl)cc4)c(-c4ccc(Br)cc4)c3c2N)c1", "Potency": "inconclusive: 31.6 µM [inhibitor, single point]"},
      {"compound": "Cc1ccc(C(=O)N/C(=C\\c2ccc(-c3ccccc3[N+](=O)[O-])o2)C(=O)NCCN(C)C)cc1", "Potency": "inconclusive: 22.4 µM [inhibitor, partial curve]"},
      {"compound": "CCC1Oc2ccc(C)cc2N(CC(=O)NCCCN2CCN(Cc3ccccc3)CC2)C1=O", "note": "(stereo unspecified)", "Potency": "inconclusive: 0.708 µM [inhibitor, full curve, poor fit]"},
      {"compound": "Cc1csc(NC(=O)CSc2nc(C(C)C)nc3ccccc23)n1", "Potency": "inconclusive: 70.8 µM [inhibitor, partial curve, poor fit]"}
    ]}
  ]
}
